The supplement of paper PMC8728848
The list shows a part of the results.

Key:
Test in all cases: glycan array binding signal (z-score within array); higher = stronger binding
Conditions in all cases: glycan notation: IUPAC condensed, linker removed
[1] = target: Gal3S(b1-3)[Fuc(a1-4)]GlcNAc
In short: (§1)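 The binding signal is a Z-score computed within each array and averaged over linkers. Arrays of the same protein sequence at different concentrations or buffers were also averaged together. Data originate from 3228 arrays in the Consortium for Functional Glycomics database, kept only where the protein sequence was available.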

Gal3S(b1-4)Glc = target: Gal3S(b1-4)Glc
In short: as §1

Gal3S(b1-4)Glc6S = target: Gal3S(b1-4)Glc6S
In short: as §1

Gal3S(b1-4)GlcNAc = target: Gal3S(b1-4)GlcNAc
In short: as §1

[2] = target: Gal3S(b1-4)[Fuc(a1-3)]Glc6S
In short: as §1

[3] = target: Gal3S(b1-4)[Fuc(a1-3)]GlcNAc
In short: as §1

[4] = target: Gal3S(b1-4)[Fuc(a1-3)]GlcNAc6S
In short: as §1

Gal3S4S(b1-4)GlcNAc = target: Gal3S4S(b1-4)GlcNAc
In short: as §1

Gal3S6S(b1-4)GlcNAc = target: Gal3S6S(b1-4)GlcNAc
In short: as §1

Gal3S6S(b1-4)GlcNAc6S = target: Gal3S6S(b1-4)GlcNAc6S
In short: as §1

Gal4S(b1-4)GlcNAc = target: Gal4S(b1-4)GlcNAc
In short: as §1

Gal4S6S(b1-4)GlcNAc = target: Gal4S6S(b1-4)GlcNAc
In short: as §1

Gal6P(b1-4)GlcNAc = target: Gal6P(b1-4)GlcNAc
In short: as §1

Gal6S(b1-3)GlcNAc = target: Gal6S(b1-3)GlcNAc
In short: as §1

Gal6S(b1-3)GlcNAc6S = target: Gal6S(b1-3)GlcNAc6S
In short: as §1

Gal6S(b1-4)Glc = target: Gal6S(b1-4)Glc
In short: as §1

Gal6S(b1-4)Glc6S = target: Gal6S(b1-4)Glc6S
In short: as §1

Gal6S(b1-4)GlcNAc = target: Gal6S(b1-4)GlcNAc
In short: as §1

Gal6S(b1-4)GlcNAc6S = target: Gal6S(b1-4)GlcNAc6S
In short: as §1

GalNAc(a1-3)Gal = target: GalNAc(a1-3)Gal
In short: as §1

GalNAc(a1-3)GalNAc = target: GalNAc(a1-3)GalNAc
In short: as §1

[5] = target: GalNAc(a1-3)GalNAc(b1-3)Gal(a1-4)Gal(b1-4)Glc
In short: as §1

[6] = target: GalNAc(a1-3)GalNAc(b1-3)Gal(a1-4)Gal(b1-4)GlcNAc
In short: as §1

GalNAc(b1-3)Gal = target: GalNAc(b1-3)Gal
In short: as §1

[7] = target: GalNAc(b1-3)Gal(a1-4)Gal(b1-4)GlcNAc
In short: as §1

[8] = target: GalNAc(b1-3)Gal(a1-4)Gal(b1-4)GlcNAc(b1-3)Gal(b1-4)Glc
In short: as §1

[9] = target: GalNAc(b1-3)Gal(a1-6)Gal(b1-4)Glc
In short: as §1

GalNAc(b1-3)GalNAc = target: GalNAc(b1-3)GalNAc
In short: as §1

GalNAc(b1-3)GlcNAc = target: GalNAc(b1-3)GlcNAc
In short: as §1

GalNAc(b1-4)Gal(b1-4)Glc = target: GalNAc(b1-4)Gal(b1-4)Glc
In short: as §1

GalNAc(b1-4)GlcNAc = target: GalNAc(b1-4)GlcNAc
In short: as §1

[10] = target: GalNAc(b1-4)GlcNAc(b1-2)Man
In short: as §1

[11] = target: GalNAc(b1-4)GlcNAc(b1-2)Man(a1-3)[GalNAc(b1-4)GlcNAc(b1-2)Man(a1-6)]Man(b1-4)GlcNAc(b1-4)GlcNAc
In short: as §1

[12] = target: GalNAc(b1-4)GlcNAc(b1-3)GalNAc(b1-4)GlcNAc
In short: as §1

GalNAc(b1-4)GlcNAc6S = target: GalNAc(b1-4)GlcNAc6S
In short: as §1

GalNAc(b1-6)GalNAc = target: GalNAc(b1-6)GalNAc
In short: as §1

GalNAc3S(b1-4)GlcNAc = target: GalNAc3S(b1-4)GlcNAc
In short: as §1

GalNAc3S(b1-4)GlcNAc3S = target: GalNAc3S(b1-4)GlcNAc3S
In short: as §1

[13] = target: GalNAc3S(b1-4)[Fuc(a1-3)]GlcNAc
In short: as §1

GalNAc4S6S(b1-4)GlcNAc = target: GalNAc4S6S(b1-4)GlcNAc
In short: as §1

GalNAc6S(b1-4)GlcNAc = target: GalNAc6S(b1-4)GlcNAc
In short: as §1

Glc(a1-4)Glc = target: Glc(a1-4)Glc
In short: as §1

[14] = target: Glc(a1-4)Glc(a1-4)Glc(a1-4)Glc
In short: as §1

Glc(a1-6)Glc(a1-6)Glc = target: Glc(a1-6)Glc(a1-6)Glc
In short: as §1

[15] = target: Glc(a1-6)Glc(a1-6)Glc(a1-6)Glc
In short: as §1

B1: XTP3-B-MRH1 (Homo sapiens), Q96DZ1 (protein)
chain: LLEPLFKQSSCSYRIESYWTYEVCHGKHIRQYHEEKETGQKINIHEYYLGNMLAKNLLFEKEREAEEKEKSNEIPTKNIEGQMTPYYPVGMGNGTPCSLKQNRPRSSTVMYICHPESKHEILSVAEVTTCEYEVVILTPLLCSHPKYRFRA
- glycan array binding signal (z-score) [1]: 0.441
- glycan array binding signal (z-score) (Gal3S(b1-4)Glc): -0.327
- glycan array binding signal (z-score) (Gal3S(b1-4)Glc6S): 0.744
- glycan array binding signal (z-score) (Gal3S(b1-4)GlcNAc): 1.03
- glycan array binding signal (z-score) [2]: 1.18
- glycan array binding signal (z-score) [3]: -0.28
- glycan array binding signal (z-score) [4]: -0.589
- glycan array binding signal (z-score) (Gal3S4S(b1-4)GlcNAc): -0.679
- glycan array binding signal (z-score) (Gal3S6S(b1-4)GlcNAc): -0.594
- glycan array binding signal (z-score) (Gal3S6S(b1-4)GlcNAc6S): -0.392
- glycan array binding signal (z-score) (Gal4S(b1-4)GlcNAc): 0.853
- glycan array binding signal (z-score) (Gal4S6S(b1-4)GlcNAc): 0.263
- glycan array binding signal (z-score) (Gal6P(b1-4)GlcNAc): 0.11
- glycan array binding signal (z-score) (Gal6S(b1-3)GlcNAc): 0.319
- glycan array binding signal (z-score) (Gal6S(b1-3)GlcNAc6S): 1.43
- glycan array binding signal (z-score) (Gal6S(b1-4)Glc): 0.558
- glycan array binding signal (z-score) (Gal6S(b1-4)Glc6S): -1.5
- glycan array binding signal (z-score) (Gal6S(b1-4)GlcNAc): 1.69
- glycan array binding signal (z-score) (Gal6S(b1-4)GlcNAc6S): 0.232
- glycan array binding signal (z-score) (GalNAc(a1-3)Gal): -0.724
- glycan array binding signal (z-score) (GalNAc(a1-3)GalNAc): 3.12
- glycan array binding signal (z-score) [5]: -0.463
- glycan array binding signal (z-score) [6]: -0.927
- glycan array binding signal (z-score) (GalNAc(b1-3)Gal): -0.437
- glycan array binding signal (z-score) [7]: 1.06
- glycan array binding signal (z-score) [8]: -1.02
- glycan array binding signal (z-score) [9]: 0.096
- glycan array binding signal (z-score) (GalNAc(b1-3)GalNAc): 1.22
- glycan array binding signal (z-score) (GalNAc(b1-3)GlcNAc): -0.925
- glycan array binding signal (z-score) (GalNAc(b1-4)Gal(b1-4)Glc): -0.25
- glycan array binding signal (z-score) (GalNAc(b1-4)GlcNAc): 0.047
- glycan array binding signal (z-score) [10]: 0.486
- glycan array binding signal (z-score) [11]: 1.34
- glycan array binding signal (z-score) [12]: -0.607
- glycan array binding signal (z-score) (GalNAc(b1-4)GlcNAc6S): -0.537
- glycan array binding signal (z-score) (GalNAc(b1-6)GalNAc): -1.91
- glycan array binding signal (z-score) (GalNAc3S(b1-4)GlcNAc): -0.602
- glycan array binding signal (z-score) (GalNAc3S(b1-4)GlcNAc3S): 3.07
- glycan array binding signal (z-score) [13]: 0.269
- glycan array binding signal (z-score) (GalNAc4S6S(b1-4)GlcNAc): -0.682
- glycan array binding signal (z-score) (GalNAc6S(b1-4)GlcNAc): 0.29
- glycan array binding signal (z-score) (Glc(a1-4)Glc): -0.398
- glycan array binding signal (z-score) [14]: -0.669
- glycan array binding signal (z-score) (Glc(a1-6)Glc(a1-6)Glc): -0.837
- glycan array binding signal (z-score) [15]: -0.891
